# Assay results as given in the supplement of paper PMC4604168 (melanoma cell lines).
# The list shows a part of the results. Many values rest on one well or one pass, so single values are uncertain.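 Cells were imaged in 1,536-well plates, and nuclei stained with an antibody against cleaved PARP were counted against all DNA-stained nuclei to give the apoptosis fraction. Screening doses were chosen to leave most cells alive, and resting and induced cleaved-PARP levels differ strongly between cell lines.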
# How the values were obtained:
# Assay in all cases: cleaved PARP positive nuclei fraction relative to DMSO control; melanoma cells; higher = more apoptosis
# Settings in all cases: library dose: low library concentration; 72 h
# [1] = test system: MZ2-MEL
# [2] = test system: MeWo
# [3] = test system: RPMI7951
# [4] = test system: RVH-421
# [5] = test system: SkMel28
# [6] = test system: SkMel2
# [7] = test system: SkMel30
# [8] = test system: SkMel5
# [9] = test system: UACC257
# [10] = test system: UACC62
# [11] = test system: WM115
# [12] = test system: WM1716
# [13] = test system: WM1745
# [14] = test system: WM3526
# [15] = test system: WM3619
# [16] = test system: WM451Lu
SMILES,cleaved PARP positive nuclei fraction [1],cleaved PARP positive nuclei fraction [2],cleaved PARP positive nuclei fraction [3],cleaved PARP positive nuclei fraction [4],cleaved PARP positive nuclei fraction [5],cleaved PARP positive nuclei fraction [6],cleaved PARP positive nuclei fraction [7],cleaved PARP positive nuclei fraction [8],cleaved PARP positive nuclei fraction [9],cleaved PARP positive nuclei fraction [10],cleaved PARP positive nuclei fraction [11],cleaved PARP positive nuclei fraction [12],cleaved PARP positive nuclei fraction [13],cleaved PARP positive nuclei fraction [14],cleaved PARP positive nuclei fraction [15],cleaved PARP positive nuclei fraction [16]
"CC[C@]1(O)C[C@H]2CN(CCc3c([nH]c4ccccc34)[C@@](C(=O)OC)(c3cc4c(cc3OC)N(C=O)[C@H]3[C@@](O)(C(=O)OC)[C@H](OC(C)=O)[C@]5(CC)C=CCN6CC[C@]43[C@@H]65)C2)C1 [vincristine] + CC(C)(C)c1cnc(CSc2cnc(NC(=O)C3CCNCC3)s2)o1 [SNS-032] (first compound 0.0001 µM, partner dose 0.01 µM)",262%,105%,222%,47.8%,27.3%,66.3%,57.5%,135%,325%,541%,1010%,1070%,110%,30.8%,233%,261%
"CC[C@]1(O)C[C@H]2CN(CCc3c([nH]c4ccccc34)[C@@](C(=O)OC)(c3cc4c(cc3OC)N(C=O)[C@H]3[C@@](O)(C(=O)OC)[C@H](OC(C)=O)[C@]5(CC)C=CCN6CC[C@]43[C@@H]65)C2)C1 [vincristine] + C=CCn1c(=O)c2cnc(Nc3ccc(N4CCN(C)CC4)cc3)nc2n1-c1cccc(C(C)(C)O)n1 [MK1775] (first compound 0.0001 µM, partner dose 0.02 µM)",222%,134%,196%,118%,211%,61.1%,102%,65.3%,279%,361%,1220%,348%,119%,78.2%,247%,96%
"Cc1cc(Nc2cc(N3CCN(C)CC3)nc(Sc3ccc(NC(=O)C4CC4)cc3)n2)n[nH]1 [Tozasertib] + O=C(Nc1ccccc1)c1cc([N+](=O)[O-])ccc1Cl [GW9662] (first compound 0.006 µM, partner dose 2 µM)",72.6%,371%,264%,64.9%,134%,63.5%,484%,108%,64.1%,109%,128%,53.3%,97.3%,294%,84%,112%
"O=c1[nH]nc(Sc2ncc([N+](=O)[O-])s2)n1-c1ccc2c(c1)OCCO2 + C[C@@H]1CCN(C(=O)CC#N)C[C@@H]1N(C)c1ncnc2[nH]ccc12 [CP690550] (first compound 0.2 µM, partner dose 1 µM)",59.7%,68.8%,150%,85.2%,41.9%,102%,119%,149%,111%,48.4%,50%,120%,103%,57.2%,93.1%,90.1%
"CC[C@]1(O)C[C@H]2CN(CCc3c([nH]c4ccccc34)[C@@](C(=O)OC)(c3cc4c(cc3OC)N(C=O)[C@H]3[C@@](O)(C(=O)OC)[C@H](OC(C)=O)[C@]5(CC)C=CCN6CC[C@]43[C@@H]65)C2)C1 [vincristine] + COc1cc(Nc2ncc(F)c(Nc3ccc4c(n3)NC(=O)C(C)(C)O4)n2)cc(OC)c1OC [Tamatinib] (first compound 0.0001 µM, partner dose 0.4 µM)",141%,277%,164%,99.6%,42.3%,172%,106%,192%,673%,389%,1760%,290%,175%,99.7%,145%,1010%
"CCCCCCCCCCCCCCCCCCOP(=O)([O-])OC1CC[N+](C)(C)CC1 [Perifosine] + Cn1cc(/C=C2\C(=O)Nc3cccnc32)c2ccccc21 [GW441756] (first compound 0.4 µM, partner dose 0.4 µM)",90.8%,106%,122%,128%,95.7%,28.1%,44.8%,85.5%,285%,48.6%,98.7%,50.7%,72.5%,67.2%,88.3%,332%
"CCCCCCCCCCCCCCCCCCOP(=O)([O-])OC1CC[N+](C)(C)CC1 [Perifosine] + C=CCn1c(=O)c2cnc(Nc3ccc(N4CCN(C)CC4)cc3)nc2n1-c1cccc(C(C)(C)O)n1 [MK1775] (first compound 0.4 µM, partner dose 0.02 µM)",97.8%,42.9%,241%,130%,121%,55.4%,87.3%,379%,66.7%,104%,45%,170%,100%,48.1%,98.2%,223%
"O=c1[nH]nc(Sc2ncc([N+](=O)[O-])s2)n1-c1ccc2c(c1)OCCO2 + CN(C)S(=O)(=O)c1ccc2c(c1)/C(=C/c1cc3c([nH]1)CCCC3)C(=O)N2 [SU6656] (first compound 0.2 µM, partner dose 0.4 µM)",105%,68.6%,93.7%,63.9%,93.3%,46.8%,62.1%,89.2%,99.5%,145%,233%,33.6%,97.5%,65.6%,103%,62.5%
"Cc1cc(Nc2cc(N3CCN(C)CC3)nc(Sc3ccc(NC(=O)C4CC4)cc3)n2)n[nH]1 [Tozasertib] + NCC(=O)Nc1ccc(-n2nc(C(F)(F)F)cc2-c2ccc3c(ccc4ccccc43)c2)cc1 [OSU03012] (first compound 0.006 µM, partner dose 1 µM)",169%,107%,43.2%,108%,149%,83.4%,138%,605%,153%,367%,79.5%,209%,128%,82.8%,155%,58.5%
